# Results deposited as PubChem BioAssay AID1259254 (NCATS, 2017)
# Aim: 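Finding genes that stop cells copying their DNA twice in one cycle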 (primary screen)
# Cell system: human HCT116 colorectal cancer cells
# Reagents: single siRNA against human genes
# Duration: 3 days
# Read-out: 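Nuclei stained with Hoechst and imaged; cell-cycle phase assigned by DNA content; G2 share scaled per plate, non-targeting siRNA 0%, GMNN siRNA 100%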
# Reading the numbers: G2 robust z-score: higher = more G2 cells, more excess DNA replication
# Call rule: 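Active siRNAs have a G2 robust z of 5 or more median absolute deviations over the median, which in these data means about 38% or higher of GMNN control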
# Here is an unselected part of about 59,000 reagents tested. About 1,550 of them (2.6%) were called active. 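G2 share is only a proxy for re-replication; each gene was hit by three separate siRNAs, and active genes were retested.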 Reagents against one gene are numbered here. Not all columns of the deposit are shown. The record does not give: the amount of reagent.
gene,reagent,G2 robust z-score,Call
HDHD5,1,1.07,inactive
HDHD5,2,0.305,inactive
HDHD5,3,-0.708,inactive
NECTIN3,1,1.78,inactive
NECTIN3,2,0.218,inactive
NECTIN3,3,-0.576,inactive
KTI12,1,-0.192,inactive
KTI12,2,6.36,active
KTI12,3,-1.25,inactive
IFT43,1,0.715,inactive
IFT43,2,-0.39,inactive
IFT43,3,-0.757,inactive
PTEN,1,-0.685,inactive
PTEN,2,0.0798,inactive
PTEN,3,-0.185,inactive
CNGA2,1,0.764,inactive
CNGA2,2,-0.198,inactive
CNGA2,3,-0.34,inactive
TBC1D22B,1,-1.31,inactive
TBC1D22B,2,1.03,inactive
TBC1D22B,3,-1.03,inactive
LINC01118,1,-1.03,inactive
LINC01118,2,0.057,inactive
LINC01118,3,-0.57,inactive
MCOLN2,1,0.092,inactive
MCOLN2,2,-0.478,inactive
MCOLN2,3,-0.955,inactive
ZDHHC12,1,0.165,inactive
ZDHHC12,2,0.288,inactive
ZDHHC12,3,0.482,inactive

No new results follow: entries from further up.
gene,reagent,G2 robust z-score,Call
NECTIN3,2,0.218,inactive
NECTIN3,3,-0.576,inactive
KTI12,1,-0.192,inactive
